Data published in publication PMC11217351.

By UniProt entry, the sequences of proteins in these tests, tags left out. Where a name states a change or a piece, a line headed by the entry shows the natural chain unless it says otherwise.
UniProt Q32KD2: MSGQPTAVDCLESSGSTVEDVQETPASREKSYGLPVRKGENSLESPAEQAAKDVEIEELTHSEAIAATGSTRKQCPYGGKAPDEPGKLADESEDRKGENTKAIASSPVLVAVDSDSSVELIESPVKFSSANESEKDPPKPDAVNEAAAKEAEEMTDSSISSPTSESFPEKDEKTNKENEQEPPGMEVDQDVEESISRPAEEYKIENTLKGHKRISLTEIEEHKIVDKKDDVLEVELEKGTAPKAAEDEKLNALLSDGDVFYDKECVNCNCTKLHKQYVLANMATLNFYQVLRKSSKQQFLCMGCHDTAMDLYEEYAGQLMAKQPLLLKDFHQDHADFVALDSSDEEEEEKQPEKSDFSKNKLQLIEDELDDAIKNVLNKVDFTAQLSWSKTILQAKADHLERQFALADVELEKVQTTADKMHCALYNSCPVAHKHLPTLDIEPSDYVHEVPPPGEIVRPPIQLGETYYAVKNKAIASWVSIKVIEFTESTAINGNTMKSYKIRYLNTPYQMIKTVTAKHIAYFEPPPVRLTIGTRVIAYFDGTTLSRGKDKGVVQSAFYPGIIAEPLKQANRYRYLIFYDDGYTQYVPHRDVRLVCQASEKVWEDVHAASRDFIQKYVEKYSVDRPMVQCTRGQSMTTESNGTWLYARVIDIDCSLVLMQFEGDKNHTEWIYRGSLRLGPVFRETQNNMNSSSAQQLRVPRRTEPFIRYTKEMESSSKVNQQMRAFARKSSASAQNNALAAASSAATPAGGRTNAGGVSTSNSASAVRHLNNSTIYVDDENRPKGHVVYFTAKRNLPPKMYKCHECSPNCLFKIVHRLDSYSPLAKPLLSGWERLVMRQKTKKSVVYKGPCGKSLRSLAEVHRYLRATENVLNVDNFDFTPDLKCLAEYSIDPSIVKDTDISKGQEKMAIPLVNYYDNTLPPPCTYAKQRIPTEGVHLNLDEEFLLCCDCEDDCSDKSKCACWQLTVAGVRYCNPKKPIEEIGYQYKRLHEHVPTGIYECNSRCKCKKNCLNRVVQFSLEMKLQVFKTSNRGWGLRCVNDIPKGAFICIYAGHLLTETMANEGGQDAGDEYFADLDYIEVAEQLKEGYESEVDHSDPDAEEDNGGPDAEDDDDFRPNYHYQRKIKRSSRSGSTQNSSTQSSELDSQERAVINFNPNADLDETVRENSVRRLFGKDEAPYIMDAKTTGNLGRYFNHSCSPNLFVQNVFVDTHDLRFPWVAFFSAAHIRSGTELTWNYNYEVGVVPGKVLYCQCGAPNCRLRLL
UniProt A0A0B4LF38: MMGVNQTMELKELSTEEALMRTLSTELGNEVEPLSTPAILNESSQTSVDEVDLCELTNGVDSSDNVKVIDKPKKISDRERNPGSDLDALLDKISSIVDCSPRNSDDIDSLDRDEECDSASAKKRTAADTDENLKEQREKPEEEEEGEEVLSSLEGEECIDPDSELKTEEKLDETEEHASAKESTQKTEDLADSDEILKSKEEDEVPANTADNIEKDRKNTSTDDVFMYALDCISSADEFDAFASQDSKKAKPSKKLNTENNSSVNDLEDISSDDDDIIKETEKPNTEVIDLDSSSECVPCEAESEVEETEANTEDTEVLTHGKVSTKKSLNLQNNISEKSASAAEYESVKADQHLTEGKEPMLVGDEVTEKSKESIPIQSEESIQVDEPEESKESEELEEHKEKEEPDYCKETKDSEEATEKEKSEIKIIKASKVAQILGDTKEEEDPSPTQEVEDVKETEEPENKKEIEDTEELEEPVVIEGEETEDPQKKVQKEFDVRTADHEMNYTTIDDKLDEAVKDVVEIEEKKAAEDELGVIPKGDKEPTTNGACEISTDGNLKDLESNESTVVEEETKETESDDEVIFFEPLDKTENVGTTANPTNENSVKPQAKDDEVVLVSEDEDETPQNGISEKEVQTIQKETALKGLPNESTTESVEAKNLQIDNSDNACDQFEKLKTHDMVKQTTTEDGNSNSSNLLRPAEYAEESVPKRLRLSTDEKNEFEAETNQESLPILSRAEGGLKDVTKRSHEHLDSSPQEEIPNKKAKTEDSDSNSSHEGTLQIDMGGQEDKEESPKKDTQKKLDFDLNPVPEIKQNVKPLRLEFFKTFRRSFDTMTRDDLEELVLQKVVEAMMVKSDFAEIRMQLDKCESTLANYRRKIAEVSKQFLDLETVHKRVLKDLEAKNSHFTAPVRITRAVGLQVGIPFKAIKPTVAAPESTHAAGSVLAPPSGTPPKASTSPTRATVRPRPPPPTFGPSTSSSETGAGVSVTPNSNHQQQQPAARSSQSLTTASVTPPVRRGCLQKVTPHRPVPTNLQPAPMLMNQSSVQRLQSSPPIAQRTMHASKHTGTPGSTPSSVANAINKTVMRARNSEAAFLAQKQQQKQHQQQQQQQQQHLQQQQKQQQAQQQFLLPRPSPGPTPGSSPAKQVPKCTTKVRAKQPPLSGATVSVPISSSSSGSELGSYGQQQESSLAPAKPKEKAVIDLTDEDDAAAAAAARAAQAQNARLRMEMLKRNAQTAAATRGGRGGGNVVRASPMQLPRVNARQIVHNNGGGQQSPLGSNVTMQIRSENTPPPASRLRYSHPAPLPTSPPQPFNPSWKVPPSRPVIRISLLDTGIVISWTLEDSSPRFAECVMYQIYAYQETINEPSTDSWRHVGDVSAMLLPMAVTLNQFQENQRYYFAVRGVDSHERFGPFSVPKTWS

How the values were obtained:
[1] = target: endogenously flag-HA tagged catalytic dead dSetDB1 (Y1236N) (D. melanogaster) (UniProt Q32KD2); test: affinity purification with mass spectrometry; ANTI-FLAG M2 affinity gel on the nuclear soluble fraction of 0-4 h embryos, 4 h at 4 °C, IP buffer (20 mM Tris-HCl pH 7.5, 150 mM KCl, 5 mM MgCl2, 10% glycerol, 0.05% NP-40, 0.1% Tween-20), eluted with flag peptide; enrichment over ctr embryos, three biological replicates
[2] = target: endogenously flag-HA tagged wild-type dSetDB1 (D. melanogaster) (UniProt Q32KD2); test: as above

binding [1]: binds
binding [2]: binds
Substance: Windei (Wde) (from UniProt A0A0B4LF38)

No constants are given. Whether binding was seen depends on the method and setting. In cells and extracts the contact can be indirect. Here binding means that the protein was enriched with, or labelled near, the bait; the list need not be complete.
